The record followed here is paper PMC12581312, “Lung endothelial PEAR1 induces tumor cell dormancy” (Molecular Cancer, 2025).

This assay has as its target T1, Human recombinant PEAR1 extracellular part (platelet and endothelial aggregation receptor 1), His-tagged (human) (UniProt Q5VY43).
T1 sequence: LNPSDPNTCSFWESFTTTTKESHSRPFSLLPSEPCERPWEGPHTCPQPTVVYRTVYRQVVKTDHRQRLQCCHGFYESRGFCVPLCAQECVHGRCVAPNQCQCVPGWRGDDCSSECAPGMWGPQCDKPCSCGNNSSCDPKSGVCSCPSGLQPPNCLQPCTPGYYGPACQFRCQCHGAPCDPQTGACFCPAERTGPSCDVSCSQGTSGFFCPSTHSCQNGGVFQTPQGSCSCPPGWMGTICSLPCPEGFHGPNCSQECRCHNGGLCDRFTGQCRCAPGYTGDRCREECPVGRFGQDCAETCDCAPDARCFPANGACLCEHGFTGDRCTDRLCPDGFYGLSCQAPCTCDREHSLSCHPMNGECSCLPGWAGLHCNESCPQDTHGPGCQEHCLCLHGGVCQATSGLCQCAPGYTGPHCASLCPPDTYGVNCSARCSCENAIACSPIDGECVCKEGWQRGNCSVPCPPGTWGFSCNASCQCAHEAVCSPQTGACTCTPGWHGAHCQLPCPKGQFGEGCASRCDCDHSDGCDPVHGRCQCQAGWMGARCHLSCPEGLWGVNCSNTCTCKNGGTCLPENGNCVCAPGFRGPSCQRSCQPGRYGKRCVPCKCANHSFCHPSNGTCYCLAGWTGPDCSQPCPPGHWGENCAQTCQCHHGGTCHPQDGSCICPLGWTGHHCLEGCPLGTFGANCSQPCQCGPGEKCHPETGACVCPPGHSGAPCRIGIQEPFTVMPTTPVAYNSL
The assay is described as follows: pull-down; recombinant human PEAR1 (100 nM) immobilised on Ni-NTA magnetic beads, incubated with 100 nM recombinant human CTSD, SEMA6D or LOXL2 in 50 mM NaH2PO4, 300 mM NaCl, 20 mM imidazole, pH 8.0, 1 h at room temperature; control Ni-NTA beads; immunoblotting; both purified. In general terms: In western blotting, separated proteins are transferred to a membrane and probed.

These are yes or no findings as the source states them, for the method shown. Some binding calls cover weakened binding; strength is not graded here. Tags and fused reporters may be left off the sequences shown.

B1: Human Sema6D extracellular part (semaphorin 6D), recombinant (domain or fragment, UniProt Q8NFY4 21-662)
chain: VSFPEDDEPLNTVDYHYSRQYPVFRGRPSGNESQHRLDFQLMLKIRDTLYIAGRDQVYTVNLNEMPKTEVIPNKKLTWRSRQQDRENCAMKGKHKDECHNFIKVFVPRNDEMVFVCGTNAFNPMCRYYRLSTLEYDGEEISGLARCPFDARQTNVALFADGKLYSATVADFLASDAVIYRSMGDGSALRTIKYDSKWIKEPHFLHAIEYGNYVYFFFREIAVEHNNLGKAVYSRVARICKNDMGGSQRVLEKHWTSFLKARLNCSVPGDSFFYFDVLQSITDIIQINGIPTVVGVFTTQLNSIPGSAVCAFSMDDIEKVFKGRFKEQKTPDSVWTAVPEDKVPKPRPGCCAKHGLAEAYKTSIDFPDETLSFIKSHPLMDSAVPPIADEPWFTKTRVRYRLTAISVDHSAGPYQNYTVIFVGSEAGMVLKVLAKTSPFSLNDSVLLEEIEAYNHAKCSAENEEDKKVISLQLDKDHHALYVAFSSCIIRIPLSRCERYGSCKKSCIASRDPYCGWLSQGSCGRVTPGMLAEGYEQDTEFGNTAHLGDCHEILPTSTTPDYKIFGGPTSDMEVSSSSVTTMASIPEITPKVIDTWRPKLTSSRKFVVQDDPNTSDFTDPLSGIPKGVRWEVQSGESNQMVHMN
As for B1, the binding result is reported as “binds”.
